# Record: PubChem BioAssay AID1159578 (Peter MacCallum Cancer Centre, 2015)
# Screen: 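Knock-downs that alter how fast lymphatic endothelial cells migrate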 (primary screen)
# Cells: human lymphatic endothelial cells
# Knock-down reagent: siRNA pool against human genes, 40 nM
# Timing: 48 h after transfection
# Measurement: 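High-content imaging of dye-stained cells in a scratch assay measures filled wound area and nuclei per well; duplicate means given as ratio to mock and robust z-score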
# Reading the numbers: migration robust z-score: higher = faster migration into the scratch; migration relative to mock: higher = more scratch area covered than mock; nuclei per well: higher = more cells in the well
# Call rule: 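Pools averaging fewer than 3300 nuclei are never called; remaining pools count as changed when migration robust z lies outside -2 to 2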
# Calls: active = migration changed; inactive = no migration change, or too few cells
# The whole screen tested about 18,000 reagents; this is a random part of them. In the full data, about 1,030 (5.7%) were called active. 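Inactive calls also include pools with fewer than 3300 nuclei, whose migration was not assessed.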 The raw values are shown without normalisation.
target gene,migration robust z-score,migration class with cell-count check,migration relative to mock,"nuclei per well, duplicate mean",activity call
FAM117B,3.25,migration z above 2; enough cells,1.73,5404,active
MAGOH,0.58,migration z between -2 and 2; enough cells,1.04,6821,inactive
STX2,1.29,migration z between -2 and 2; enough cells,1.06,6458,inactive
MASP1,-0.88,migration z between -2 and 2; enough cells,0.64,5260,inactive
PLCD4,0.36,migration z between -2 and 2; enough cells,0.88,6607,inactive
FFAR1,-0.1,migration z between -2 and 2; enough cells,0.78,6535,inactive
MOV10L1,-0.96,migration z between -2 and 2; enough cells,0.62,5206,inactive
SEC11B,-1.87,migration z between -2 and 2; enough cells,0.44,4179,inactive
FAS,-1.48,under 3300 nuclei; migration not judged,0.52,3185,inactive
TLCD1,-0.71,migration z between -2 and 2; enough cells,0.7,6996,inactive
ZNF804B,-0.74,migration z between -2 and 2; enough cells,0.69,5506,inactive
NUTM2G,-0.6,migration z between -2 and 2; enough cells,0.73,5634,inactive
ZNF644,-0.04,migration z between -2 and 2; enough cells,0.87,3502,inactive
KLK7,0.13,migration z between -2 and 2; enough cells,0.83,5452,inactive
MFNG,-1.38,migration z between -2 and 2; enough cells,0.54,6970,inactive
NXF3,0.02,migration z between -2 and 2; enough cells,0.81,4287,inactive
ENDOU,0.94,migration z between -2 and 2; enough cells,0.98,5298,inactive
HTR3A,-1.06,migration z between -2 and 2; enough cells,0.6,4111,inactive
BOLA2,-0.54,migration z between -2 and 2; enough cells,0.74,4086,inactive
SPACA3,0.8,migration z between -2 and 2; enough cells,0.96,4613,inactive
ACTL7A,0.55,migration z between -2 and 2; enough cells,1.03,6086,inactive
MSH3,-0.78,migration z between -2 and 2; enough cells,0.66,4959,inactive
REP15,0.34,migration z between -2 and 2; enough cells,0.97,6038,inactive
CD207,-1.34,migration z between -2 and 2; enough cells,0.54,4968,inactive
CITED2,-0.18,migration z between -2 and 2; enough cells,0.77,4878,inactive
ITPRIP,1.5,migration z between -2 and 2; enough cells,1.27,6071,inactive
RPA1,-1.27,migration z between -2 and 2; enough cells,0.56,3950,inactive
FGFR4,-2.28,under 3300 nuclei; migration not judged,0.36,3145,inactive
LRRN2,-0.95,migration z between -2 and 2; enough cells,0.64,3982,inactive
RPL29,1.23,migration z between -2 and 2; enough cells,1.21,6098,inactive
CCDC107,-0.24,migration z between -2 and 2; enough cells,0.83,4575,inactive
VAT1L,0.42,migration z between -2 and 2; enough cells,0.88,3760,inactive
CLDN5,0,migration z between -2 and 2; enough cells,0.88,6148,inactive
VRK1,-0.18,migration z between -2 and 2; enough cells,0.77,5862,inactive
ASRGL1,0.13,migration z between -2 and 2; enough cells,0.92,6208,inactive
B3GNT8,0.99,migration z between -2 and 2; enough cells,1,5960,inactive
PROP1,-1.12,migration z between -2 and 2; enough cells,0.59,5924,inactive
GOLGA8F,-1.26,migration z between -2 and 2; enough cells,0.56,5056,inactive
ADGRG6,-0.05,migration z between -2 and 2; enough cells,0.8,5633,inactive
ROMO1,1.21,migration z between -2 and 2; enough cells,1.2,6344,inactive
KANSL1L,0.1,migration z between -2 and 2; enough cells,0.9,6148,inactive
ZBTB45,0.94,migration z between -2 and 2; enough cells,1.14,4444,inactive
UHRF2,-1.68,migration z between -2 and 2; enough cells,0.48,3960,inactive
LINC00452,0.86,migration z between -2 and 2; enough cells,1.11,5941,inactive
ITGAL,0.24,migration z between -2 and 2; enough cells,0.85,5300,inactive
DEFB106A,-1.51,migration z between -2 and 2; enough cells,0.5,6051,inactive
KCNN3,-1.34,migration z between -2 and 2; enough cells,0.54,4989,inactive
C19orf18,0.11,migration z between -2 and 2; enough cells,0.91,5866,inactive
SMNDC1,0.15,migration z between -2 and 2; enough cells,0.92,5630,inactive
SLC25A1,-0.31,migration z between -2 and 2; enough cells,0.8,5808,inactive
HMG20B,1.4,migration z between -2 and 2; enough cells,1.08,4840,inactive
ZNF491,0.86,migration z between -2 and 2; enough cells,1.11,5648,inactive
CXCL16,-0.99,migration z between -2 and 2; enough cells,0.62,4960,inactive
SGMS2,0.91,migration z between -2 and 2; enough cells,0.98,5338,inactive
ARHGAP17,0.33,migration z between -2 and 2; enough cells,0.97,5991,inactive
ODAD4,0.03,migration z between -2 and 2; enough cells,0.9,4548,inactive
FGF1,-1.06,migration z between -2 and 2; enough cells,0.6,4358,inactive

A run of entries of the results above, as a working copy:
target gene,migration robust z-score,migration class with cell-count check,migration relative to mock,"nuclei per well, duplicate mean",activity call
UHRF2,-1.68,migration z between -2 and 2; enough cells,0.48,3960,inactive
LINC00452,0.86,migration z between -2 and 2; enough cells,1.11,5941,inactive
ITGAL,0.24,migration z between -2 and 2; enough cells,0.85,5300,inactive
DEFB106A,-1.51,migration z between -2 and 2; enough cells,0.5,6051,inactive
KCNN3,-1.34,migration z between -2 and 2; enough cells,0.54,4989,inactive
